No constants are given. Whether binding was seen depends on the method and setting. In cells and extracts the contact can be indirect. A yes stands for co-enrichment or nearness to the bait. Other partners may have been found.
T1: biotinylated cocotide tC1 (Theobroma cacao)
T1 sequence (peptide, K(biotin), biotin on the added N-terminal Lys; oxidatively folded (disulfides)): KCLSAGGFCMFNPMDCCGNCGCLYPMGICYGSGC

By UniProt entry, the sequences of proteins in these tests, tags left out.
UniProt O43813: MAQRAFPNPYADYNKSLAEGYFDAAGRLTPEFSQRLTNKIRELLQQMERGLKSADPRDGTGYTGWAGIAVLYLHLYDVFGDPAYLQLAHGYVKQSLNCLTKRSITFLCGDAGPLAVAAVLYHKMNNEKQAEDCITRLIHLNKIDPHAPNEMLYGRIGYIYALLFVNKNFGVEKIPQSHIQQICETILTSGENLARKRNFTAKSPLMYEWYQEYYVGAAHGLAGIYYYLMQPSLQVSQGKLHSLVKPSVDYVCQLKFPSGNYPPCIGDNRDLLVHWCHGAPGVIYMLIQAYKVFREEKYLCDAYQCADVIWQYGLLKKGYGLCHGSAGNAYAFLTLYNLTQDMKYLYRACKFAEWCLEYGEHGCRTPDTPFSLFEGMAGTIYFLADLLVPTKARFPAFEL
UniProt Q13885: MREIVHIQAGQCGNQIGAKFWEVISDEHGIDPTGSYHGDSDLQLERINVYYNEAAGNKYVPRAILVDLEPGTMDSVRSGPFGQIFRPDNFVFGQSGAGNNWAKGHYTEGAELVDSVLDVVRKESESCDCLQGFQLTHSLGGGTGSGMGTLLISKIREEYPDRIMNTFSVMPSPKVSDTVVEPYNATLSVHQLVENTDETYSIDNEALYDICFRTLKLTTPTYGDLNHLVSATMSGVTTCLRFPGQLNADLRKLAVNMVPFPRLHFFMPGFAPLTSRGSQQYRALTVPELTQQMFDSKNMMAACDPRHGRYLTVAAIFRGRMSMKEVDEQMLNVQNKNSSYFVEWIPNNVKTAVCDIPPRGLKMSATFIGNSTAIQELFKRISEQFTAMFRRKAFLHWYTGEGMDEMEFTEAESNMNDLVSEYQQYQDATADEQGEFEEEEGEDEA
UniProt Q9BVA1: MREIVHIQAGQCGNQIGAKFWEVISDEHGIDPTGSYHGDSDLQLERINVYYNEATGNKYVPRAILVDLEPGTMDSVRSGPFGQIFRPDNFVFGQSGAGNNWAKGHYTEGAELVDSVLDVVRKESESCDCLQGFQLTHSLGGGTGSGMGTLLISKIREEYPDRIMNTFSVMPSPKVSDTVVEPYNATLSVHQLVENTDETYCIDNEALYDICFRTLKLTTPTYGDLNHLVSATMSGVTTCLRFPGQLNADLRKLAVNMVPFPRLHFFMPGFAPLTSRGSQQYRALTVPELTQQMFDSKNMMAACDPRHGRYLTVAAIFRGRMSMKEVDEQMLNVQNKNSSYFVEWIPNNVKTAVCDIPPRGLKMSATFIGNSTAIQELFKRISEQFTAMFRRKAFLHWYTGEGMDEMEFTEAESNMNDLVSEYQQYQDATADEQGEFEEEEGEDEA

B1: ferrochelatase (enzyme, UniProt P22830 55-423)
chain: GAKPQVQPQKRKPKTGILMLNMGGPETLGDVHDFLLRLFLDRDLMTLPIQNKLAPFIAKRRTPKIQEQYRRIGGGSPIKIWTSKQGEGMVKLLDELSPNTAPHKYYIGFRYVHPLTEEAIEEMERDGLERAIAFTQYPQYSCSTTGSSLNAIYRYYNQVGRKPTMKWSTIDRWPTHHLLIQCFADHILKELDHFPLEKRSEVVILFSAHSLPMSVVNRGDPYPQEVSATVQKVMERLEYCNPYRLVWQSKVGPMPWLGPQTDESIKGLCERGRKNILLVPIAFTSDHIETLYELDIEYSQVLAKECGVENIRRAESLNGNPLFSKALADLVHSHIQSNELCSKQLTLSCPLCVNPVCRETKSFFTSQQL

Biological target: T1, biotinylated cocotide tC1 (Theobroma cacao)
Test: affinity purification with mass spectrometry; biotin-tC1 immobilised on NeutrAvidin UltraLink resin; 20 ug HaCaT cell lysate, overnight at 4 C; washed with PBS 10 times; on-resin digestion, LC-MS/MS, label-free quantification against a biotin control (at least 2-fold enrichment, significance >15; CRAPome filtered); only the target purified

Molecule | binding
glutathione S-transferase (LANC1) (from UniProt O43813 1-399) (enzyme) | binds
tubulin beta-2A chain (from UniProt Q13885 1-445) | binds
tubulin beta-2B chain (from UniProt Q9BVA1 1-445) | binds
B1 | binds
